## Binding screen against folded nucleic acids

Source: the ROBIN nucleic acid binder screens (doi:10.1002/anie.202211358).

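Each compound is printed as two spots on a slide made to bind it covalently, so it has no test concentration; the read-out is fluorescence of the bound, labelled oligonucleotide. The data file lists only calls. An earlier report of the laboratory on the PreQ1, TPP and SAM-II riboswitches (doi:10.1038/s41467-019-09493-3) used 1 µM RNA for 2 h and required a mean Z-score above 3 (spot signal-to-noise against the whole library), a score well above that on a control array, and duplicate spots agreeing (coefficient of variation under 100); it then also set aside compounds that hit other targets, which this list keeps. The cut-offs behind this list may differ. A missing hit is not proof of no binding, and a hit is not a measured affinity.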
A compound is marked yes if it was called a hit and no if it was screened but was not.
This is an unselected part of the compounds tested.
A target missing from an entry has no call listed here.
A dash means that no call is listed here.

Targets, with sequences 5′ to 3′:
TPP: TPP riboswitch RNA three-way junction, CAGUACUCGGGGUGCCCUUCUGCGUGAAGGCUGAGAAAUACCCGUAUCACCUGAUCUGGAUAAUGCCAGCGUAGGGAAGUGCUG. Hit rate about 0.7% of about 24,000 compounds.
SAM-II: SAM-II riboswitch RNA pseudoknot, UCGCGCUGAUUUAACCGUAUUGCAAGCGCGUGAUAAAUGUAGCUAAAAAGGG. Hit rate about 1% of about 21,000 compounds.
PreQ1: PreQ1 riboswitch RNA pseudoknot, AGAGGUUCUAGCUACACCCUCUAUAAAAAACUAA. From B. subtilis. Hit rate about 0.7% of about 24,000 compounds.

SMILES	TPP	SAM-II	PreQ1
Cc1ccc(N2C(=O)CC(Nc3ccc(F)cc3)C2=O)c(Br)c1 (stereo not given)	no	no	no
OC(Cn1ccnc1-c1cnc(C2CCCCC2)nc1)c1ccccc1 (stereo not given)	no	no	no
COC(=O)c1c(C)sc2c1OC(N)=C(C#N)C2c1cccc2ccccc12 (stereo not given)	no	no	no
Nc1ccc(C(=O)CC2(O)C(=O)N(Cc3ccc(Cl)cc3)c3ccccc32)cc1 (stereo not given)	no	no	no
COc1cc(Cl)c(C)cc1NC(=O)c1ccccc1C1CCNC1 (stereo not given)	no	yes	no
Cn1c(=O)c2c(nc(NCCOc3ccc(F)cc3)n2C)n(C)c1=O	no	no	no
OC[C@H]1CN(Cc2ccc(F)cc2Cl)C[C@H]1CN1CCCCC1	no	no	no
Nc1ccc2oc(Cc3ccc(Cl)cc3)nc2c1	no	no	no
CC(O)c1cccc(N2CCc3[nH]c4c(Cl)cccc4c3C2)n1 (stereo not given)	no	no	no
Cc1cc(OCCN2CC2)c2ccccc2n1	no	no	no
O=C1N(Cc2noc(-c3ccccc3)n2)c2ccccc2NC12CCNCC2	no	no	no
Cl.OC12CCCCC1C(c1ccc(Cl)cc1Cl)NCC2 (stereo not given)	no	no	no
CCC(Nc1ncccc1-c1nc(-c2ccc(OC)cc2)no1)c1ccccc1 (stereo not given)	no	-	no
Cc1nc(Br)c(Br)c(C)c1Br	no	no	no
c1ccc(-c2noc(CNC3CCCCC3)n2)cc1	no	-	no
Cc1nc(C)c(-c2csc(Nc3ccccc3F)n2)s1	no	no	no
CCCCNCCOc1ccccc1F.O=C(O)C(=O)O	no	no	no
O=C1c2ccccc2C(Nc2ccc3c(c2)OCCO3)N1Cc1ccccc1Cl (stereo not given)	no	no	no
O[C@@H]1CNCC[C@H]1CNCc1ccccc1-c1ccccc1	no	no	no
Cc1nnc2c(Nc3ccc(F)c(Cl)c3)nc3ccccc3n12	no	-	no
Oc1cc(-c2ccc(Cl)cc2)nc2ccccc12	no	no	no
Cc1cc(NCCN(C)C)n2nc(-c3cccc(Cl)c3)c(C)c2n1	no	-	no
O=C(c1cnn2ccccc12)N1Cc2ccccc2C(O)C1 (stereo not given)	no	no	no
CCc1nccn1CCCNCc1cc(O)c2cc(C)ccc2n1	no	no	no
CCN1CCN(CCCNC2CC(=O)N(c3ccc(F)cc3)C2=O)CC1 (stereo not given)	no	no	no
COc1ccc(C(=O)c2c(C)n(CCN3CCOCC3)c3ccccc23)cc1	no	no	no
CCCn1nccc1C(=O)N1CCC2(CCNCC2)CC1	no	no	no
Cn1c(=O)n(C)c2cc(CNC(C)(C)CO)ccc21	no	-	no
Cc1ccc(NC(=O)c2nnn(Cc3cccc(C(F)(F)F)c3)c2N)c(C)c1	no	no	no
Cn1nc(Oc2nc(NC(C)(C)C)nc(N3CCOCC3)n2)ccc1=O	no	no	no
CCn1cc(CNCC2=NOC(Cc3cc(OC)c4c(c3)OCO4)C2)c(C)n1 (stereo not given)	no	no	no
O=c1c(Cl)c(NC2CC2)cnn1-c1ccccc1	no	no	no
CN1CCCc2ccc(N)cc21	no	no	no
N[C@@H]1CCN(c2nc3c(c(C(F)(F)F)n2)CCCC3)C[C@H]1O	no	no	no
Cc1cc(C)n(CCn2cc(C3CCCNC3)nn2)c(=O)n1 (stereo not given)	no	no	no
Cl.Cl.OC(COCc1ccc2c(c1)OCO2)CN1CCN(c2ccc(F)cc2)CC1 (stereo not given)	no	no	no
CCCOCC1CCN(c2nc(-c3ccncc3)nc3c2CNC3)C1 (stereo not given)	no	no	no
OCCNC(=S)NC1CCCCC1	no	no	no
C=CCN1C(=O)C2(C(C(=O)OCC)=C(N)OC3=C2C(=O)CCC3)c2ccccc21 (stereo not given)	no	no	no
O=[N+]([O-])c1cn2c(n1)OC[C@@H](OCc1ccc(OC(F)(F)F)cc1)C2	no	no	no
CCOC(=O)c1sc2nc(-c3ccccc3Cl)nc(C)c2c1N	no	no	no
Cc1ccc2oc(-c3cc(N)ccc3Cl)nc2c1	no	no	no
COc1ccc(N2C(=O)CC(C#N)=C2N)c(OC)c1	no	no	no
COC(=O)c1cc(-c2cccc(N)c2)nc2ccccc12	no	no	no
NC(CO)C(=O)NNCc1ccc(O)c(O)c1O (stereo not given)	no	no	no
O[C@@H]1CN(C2Cc3ccccc3C2)CC[C@H]1c1ccc2c(c1)OCO2	no	no	no
C=CCOC(=O)C1=C(C)OC(N)=C(C#N)C1c1ccc(F)cc1 (stereo not given)	no	no	no
COc1cnc(NS(=O)(=O)c2ccc(N)cc2)nc1	no	no	no
CCOc1ccc(S(=O)(=O)[C@H]2CS(=O)(=O)C[C@@H]2NCCOC)cc1	no	-	no
Nc1cc(-c2ccc(Br)cc2)nn1S(=O)(=O)c1ccc(F)cc1	no	no	no
Cc1cc(F)ccc1NC(=O)CCc1c(C)nc2nc(CN)nn2c1C	no	-	no
Nc1nc(=O)c2ncn(COC(CO)CO)c2[nH]1	no	no	no
N#CC1=C(N)Oc2[nH]nc(-c3ccccc3)c2C1c1cccc(F)c1 (stereo not given)	no	no	no
COc1ccc(C2c3c(-c4c(C)cc(C)cc4O)n[nH]c3C(=O)N2CCO)cc1OC (stereo not given)	no	-	no
N#CC1=C(N)Oc2c(oc(CO)cc2=O)C1c1ccccc1C(F)(F)F (stereo not given)	no	no	no
CCN(CC)C(=O)[C@@H]1C[C@@H](N)CN1C1CCOCC1	no	no	no
CN1CCN(c2ccc(N3CC(=O)C(c4nc5ccccc5n4C)=C3N)cc2)CC1	no	-	no
CC(C)n1cc(C(=O)NCCNc2cccnc2)cn1	no	no	no
CCCS(=O)(=O)N1CCN(c2cc(C)nc(NCC)n2)CC1	no	-	no

Once more, the final 5:

{"smiles": "N#CC1=C(N)Oc2c(oc(CO)cc2=O)C1c1ccccc1C(F)(F)F", "stereo": "stereo not given", "TPP": "no", "SAM-II": "no", "PreQ1": "no"}
{"smiles": "CCN(CC)C(=O)[C@@H]1C[C@@H](N)CN1C1CCOCC1", "TPP": "no", "SAM-II": "no", "PreQ1": "no"}
{"smiles": "CN1CCN(c2ccc(N3CC(=O)C(c4nc5ccccc5n4C)=C3N)cc2)CC1", "TPP": "no", "PreQ1": "no"}
{"smiles": "CC(C)n1cc(C(=O)NCCNc2cccnc2)cn1", "TPP": "no", "SAM-II": "no", "PreQ1": "no"}
{"smiles": "CCCS(=O)(=O)N1CCN(c2cc(C)nc(NCC)n2)CC1", "TPP": "no", "PreQ1": "no"}